# Source: PubChem BioAssay AID504444 (National Center for Advancing Translational Sciences (NCATS), 2011)
# Screen size: about 360,000 compounds; about 7,500 (2.1%) were called active. The inconclusive results got no clear call from the source; some entries with a clear call stand among them for comparison. Calls come from the whole dose curve; as a rule, active = well fitted inhibition curve with a large enough effect; inconclusive = small, poorly fitted or top-dose-only effect, or effect the other way; inactive = flat fitted curve, though single readings scatter. Potencies beside an inconclusive call are fits to weak or partial responses and may not hold up.
# Experiment: Nrf2 qHTS screen for inhibitors; note: nearly all actives have a fitted effect of over 60% in size
# Conditions: A549 ARE-Fluc reporter, luciferase luminescence, 18-24 h; activity change, negative = inhibition: at 46 µM (top of the series)
# Procedure, shortened: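 A549 ARE_Fluc cells, 5000/well, 5% FBS OPTI-MEM; compounds in dose-response, 18-24 h at 37 °C/5% CO2; CellTiter-Fluor viability read (Ex 405/Em 525), then BugLite luciferase luminescence = Nrf2 activity.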
# % is set by controls: 0 for no effect and ±100 for the full control effect; potency is the fitted concentration of half-maximal effect.
SMILES,"activity change, negative = inhibition",Potency
CC1CCN(C(=O)c2ccc(S(=O)(=O)Cc3ccccc3F)c([N+](=O)[O-])c2)CC1,inactive: -11.1%,–
Cc1cc(C(C)(C)C)cc(C)c1Cn1c2[n+](c3ccc(C(F)(F)F)cc31)CCCCC2,–,"inconclusive: 13 µM [falling, partial curve, poor fit]"
Cc1ccc(S(=O)(=O)N2CCN(S(=O)(=O)N3CCCCC3)CC2)c(C)c1,–,"inconclusive: 5.8 µM [falling, full curve]"
CCSc1ccc2cc(OC)ccc2[n+]1CC,–,active: 16.4 µM
CC(=O)N1CCc2cc(Br)cc(S(=O)(=O)N3CCN(c4cccc(C)c4)C(C)C3)c21 (centres undefined),inactive: -28.3% [at 9.27 µM],–
C=C(C)COc1ccc(-c2nc(N)ncc2-c2ccc(Br)cc2)c(O)c1,–,"inconclusive: 23.1 µM [falling, single point]"
Cc1cccc(NC(=O)CSc2nnc(-c3ccncc3)n2C)c1,–,"inconclusive: 1.46 µM [falling, full curve, poor fit]"
CC(C)(C)c1cc(C(F)(F)F)n2ncc(-c3ccccc3)c2n1,–,"inconclusive: 25.9 µM [activator, single point]"
Cc1cc(NC(=O)Nc2cccc(Cl)c2)n(C(C)(C)C)n1,–,"inconclusive: 14.6 µM [falling, partial curve, poor fit]"
O=S(=O)(c1ccc(Cl)cc1)N1CCN(c2nc(-c3cccc(Br)c3)nc3ccccc23)CC1,inactive: 4.21%,–
COc1cccc(CNc2ccc(S(=O)(=O)N3CCN(C)CC3)cn2)c1,inactive: -3.3%,–
Cc1ccc(NC(=O)CN2C(=O)COc3ccc(C)cc32)nc1,inactive: -11.1%,–
CN(C)S(=O)(=O)N1CCC(Oc2ccc(C(=O)NC3Cc4ccccc4C3)cc2)CC1,–,"inconclusive: 3.26 µM [falling, full curve]"
COc1ccc(CCN2CCC(CNC(=O)c3cnn(-c4ccccc4)c3C3CCN(C(=O)OC(C)(C)C)CC3)CC2)cc1,–,"inconclusive: 3.66 µM [activator, full curve]"
CC(NC(=S)NC1CCCCC1)c1ccccc1 (centres undefined),–,"inconclusive: 18.4 µM [falling, single point]"
COc1ccc(Cl)cc1NC(=O)c1cc(C)nn1-c1ccccc1,–,"inconclusive: 7.31 µM [activator, single point]"
COCCNc1nc2c(c(=O)n(C)c(=O)n2C)n1Cc1cccc(C)c1,–,"inconclusive: 13 µM [falling, partial curve]"
O=S(=O)(c1cccc(F)c1)N1CCN(Cc2cc3c(cc2Br)OCCO3)CC1,–,"inconclusive: 18.4 µM [falling, single point]"
CC(=O)OCC1=C(C(=O)O)N2C(=O)[C@@H](NC(=O)Cc3ccccc3)[C@H]2SC1,inactive: 3.92%,–
Oc1ccc(NCc2ccc(OCc3ccccc3Cl)cc2)cc1,–,"inconclusive: 4.61 µM [activator, full curve]"
Cn1c(SCC(=O)Nc2ccc3nc(SCC(=O)N4CCCC4)sc3c2)nnc1-c1ccccc1,–,"inconclusive: 32.6 µM [falling, single point]"
Cn1cnc2c(N/N=C/c3cccs3)ncnc21,–,"inconclusive: 25.9 µM [falling, single point]"

# Full records from above. Values in the order: activity change, negative = inhibition	Potency
# CC(=O)OCC1=C(C(=O)O)N2C(=O)[C@@H](NC(=O)Cc3ccccc3)[C@H]2SC1 in the list: inactive: 3.92%	–
# Cc1cc(NC(=O)Nc2cccc(Cl)c2)n(C(C)(C)C)n1 in the list: –	inconclusive: 14.6 µM [falling, partial curve, poor fit]
# Cn1cnc2c(N/N=C/c3cccs3)ncnc21 in the list: –	inconclusive: 25.9 µM [falling, single point]
# C=C(C)COc1ccc(-c2nc(N)ncc2-c2ccc(Br)cc2)c(O)c1 in the list: –	inconclusive: 23.1 µM [falling, single point]

# Following part:

SMILES,"activity change, negative = inhibition",Potency
CC(=O)c1c(C)[nH]c(C(=O)CN2C(=O)NC(C)(CCC(C)C)C2=O)c1C (centres undefined),–,"inconclusive: 14.6 µM [falling, partial curve]"
COc1ccc(NC(=O)CNCCC2=CCCCC2)cc1,–,"inconclusive: 23.1 µM [activator, single point]"
CS(=O)(=O)N(Cc1ccc(Cl)cc1)c1ccc(C(=O)Nc2cccnc2)cc1,–,active: 16.4 µM
COc1ccc(-c2nnc(NC(=O)c3cccs3)s2)c(OC)c1,–,"inconclusive: 32.6 µM [activator, single point]"
O=C(c1ccc2c3c(cccc13)C(=O)N(O)C2=O)N1CCCCC1,–,"inconclusive: 18.4 µM [activator, partial curve]"
Cc1cccc(C(=O)NCC(=O)OCc2nc(N)nc(Nc3ccccc3C)n2)c1,–,"inconclusive: 0.0651 µM [falling, full curve, poor fit]"
Fc1ccccc1-n1ncc2c1ncn1nc(Cc3ccccc3)nc21,–,"inconclusive: 0.82 µM [activator, full curve]"
CC(C)Cc1cc(C(=O)Nc2ccccc2)c2ccccc2n1,–,"inconclusive: 32.6 µM [falling, single point]"
CC1CCN(S(=O)(=O)c2cn(CC(=O)N3CCN(c4cccc(C(F)(F)F)c4)CC3)cn2)CC1,–,"inconclusive: 29.1 µM [falling, single point]"
COc1ccc(NS(=O)(=O)c2cc(NC(=O)C3CC3)ccc2N2CCCCC2)cc1,–,active: 16.4 µM
Cc1ccccc1NC(=O)CN(c1ccc(Cl)cc1Cl)S(=O)(=O)c1ccccc1,–,"inconclusive: 18.4 µM [falling, partial curve, poor fit]"
O=C(Cc1ccccc1)Nc1ccccc1C(=O)O,–,"inconclusive: 29.1 µM [activator, single point]"
Cc1ccc(C)c(N/C=C(\C#N)c2nc3ccccc3o2)c1,–,"inconclusive: 3.66 µM [activator, partial curve, poor fit]"
COC(=O)C(CC(C)C)NS(=O)(=O)c1ccccc1Br (centres undefined),–,"inconclusive: 32.6 µM [falling, single point]"
Cc1cc(C)nc(SCC(=O)c2ccc(C)c(C)c2)n1,–,"inconclusive: 20.6 µM [activator, partial curve, poor fit]"
Nc1nccc(/C=C/c2ccc(Cl)cc2)n1,–,"inconclusive: 10.3 µM [activator, partial curve]"
O=C1CN(C(=O)COC(=O)c2ccc(Cl)c(S(=O)(=O)N3CCCCC3)c2)c2ccccc2N1,inactive: 5.8%,–
COc1ccccc1Nc1nnc(SCC(=O)NC2CC2)s1,–,"inconclusive: 4.61 µM [activator, full curve]"
CN(Cc1c(F)cccc1Cl)C(=O)CNC(=O)c1ccc2c(c1)OCO2,–,"inconclusive: 5.17 µM [activator, partial curve]"
O=C(C[n+]1ccccc1)N/N=C/c1ccc(F)cc1,–,"inconclusive: 4.11 µM [activator, partial curve, poor fit]"
Cc1ccc([C@@H]2CC=C(C(=O)O)[C@H](c3cccc(F)c3)N2S(=O)(=O)c2ccccc2C)cc1,–,"inconclusive: 29.1 µM [falling, single point]"
C/C(=N\NC(=O)c1ccc2c(c1)OCCO2)c1ccccc1,–,"inconclusive: 0.58 µM [activator, partial curve]"

SMILES,"activity change, negative = inhibition",Potency
Cc1cccc(NC(=O)N2CCC(CN3CCOCC3)CC2)c1C,–,"inconclusive: 18.4 µM [activator, single point]"
O=C(Nc1ccc2c(c1)C(=O)N(CC1CCCO1)C2=O)c1ccc(Cl)c(Cl)c1 (centres undefined),–,"inconclusive: 29.1 µM [falling, single point]"
C=C[C@@H]1c2ccccc2N(S(=O)(=O)c2ccc(C)cc2)[C@H](c2ccc(OC(C)=O)cc2)C1(C#N)C#N,–,"inconclusive: 29.1 µM [falling, single point]"
O=C(NNC(=O)c1ccc[nH]1)Nc1cccc(C(F)(F)F)c1,–,"inconclusive: 29.1 µM [activator, single point]"
COc1ccc(OC)c(S(=O)(=O)N2CC=C(c3c(C)n(CC(=O)N4CCCC4)c4ccccc34)CC2)c1,inactive: -13.6%,–
CSc1ccc(N/N=C(/C#N)S(=O)(=O)C(C)(C)C)cc1,–,"inconclusive: 25.9 µM [falling, single point]"
COc1ccc(C(=O)NCCNC(=O)c2ccc(OC)cc2)cc1,–,"inconclusive: 18.4 µM [falling, single point]"
CCOc1ccc(C2C(C(=O)Nc3ccc(Cl)cc3)=C(C)Nc3nc(C(F)(F)F)nn32)cc1 (centres undefined),inactive: -26.6%,–
C=CCc1cccc(/C=N/NC(=O)c2ccc3nc[nH]c3c2)c1O,–,"inconclusive: 29.1 µM [falling, single point]"
Cc1ccc(S(=O)(=O)Nc2nc3ccc(N)cc3s2)cc1,–,"inconclusive: 20.6 µM [activator, partial curve, poor fit]"
COc1ccc(CNC(=O)C2CSC(=O)C2)cc1 (centres undefined),–,"inconclusive: 4.11 µM [activator, full curve, poor fit]"
CCC(CC)C(=O)Nc1cc(C(=O)NCCc2ccccc2)ccc1Cl,–,"inconclusive: 14.6 µM [activator, partial curve, poor fit]"
CN1CCN(c2ccc(Cl)cc2NC(=O)c2ccc(S(=O)(=O)N3CCCCCC3)cc2)CC1,–,"inconclusive: 29.1 µM [activator, single point]"
Cn1nccc1NC(=O)Nc1cccc([N+](=O)[O-])c1,–,"inconclusive: 0.651 µM [falling, full curve, poor fit]"
CSc1nsc(SCC(=O)Nc2ccccc2F)n1,–,"inconclusive: 20.6 µM [activator, partial curve]"
COc1ccc(-c2cc(C(F)(F)F)n3nc(C(=O)NCC45CC6CC(CC(C6)C4)C5)cc3n2)cc1OC,inactive: 27.9%,–
CN(C)c1ccnc(Oc2ccc(C(C)(C)C)cc2)c1C#N,–,"inconclusive: 32.6 µM [falling, single point]"
CCOc1cccc(C(=O)Nc2ccc(NC(=O)c3cc4ccccc4o3)c(OC)c2)c1,–,"inconclusive: 32.6 µM [falling, single point]"
CC1CCc2cc(F)ccc2N1C(=O)CSc1nnc(-c2cccs2)n1C (centres undefined),–,"inconclusive: 29.1 µM [falling, single point]"
O=C1N=C(N2CCCCC2)S/C1=C\c1ccccc1F,–,"inconclusive: 6.51 µM [activator, full curve]"
